Over roughly 33,000 sequences, “E-score (-0.5 to 0.5)” has its median near -0.015; the highest 2% begin near 0.3. The list shows a part of the results.
The sequences below were run against T1, Abf1 (UniProt P14164) (assay: PBM E-score (8-mer binding enrichment) (E-score (-0.5 to 0.5)); higher = stronger / more preferred TF binding). Settings: protein concentration: 200 nM; construct: GST-full length.
T1 sequence: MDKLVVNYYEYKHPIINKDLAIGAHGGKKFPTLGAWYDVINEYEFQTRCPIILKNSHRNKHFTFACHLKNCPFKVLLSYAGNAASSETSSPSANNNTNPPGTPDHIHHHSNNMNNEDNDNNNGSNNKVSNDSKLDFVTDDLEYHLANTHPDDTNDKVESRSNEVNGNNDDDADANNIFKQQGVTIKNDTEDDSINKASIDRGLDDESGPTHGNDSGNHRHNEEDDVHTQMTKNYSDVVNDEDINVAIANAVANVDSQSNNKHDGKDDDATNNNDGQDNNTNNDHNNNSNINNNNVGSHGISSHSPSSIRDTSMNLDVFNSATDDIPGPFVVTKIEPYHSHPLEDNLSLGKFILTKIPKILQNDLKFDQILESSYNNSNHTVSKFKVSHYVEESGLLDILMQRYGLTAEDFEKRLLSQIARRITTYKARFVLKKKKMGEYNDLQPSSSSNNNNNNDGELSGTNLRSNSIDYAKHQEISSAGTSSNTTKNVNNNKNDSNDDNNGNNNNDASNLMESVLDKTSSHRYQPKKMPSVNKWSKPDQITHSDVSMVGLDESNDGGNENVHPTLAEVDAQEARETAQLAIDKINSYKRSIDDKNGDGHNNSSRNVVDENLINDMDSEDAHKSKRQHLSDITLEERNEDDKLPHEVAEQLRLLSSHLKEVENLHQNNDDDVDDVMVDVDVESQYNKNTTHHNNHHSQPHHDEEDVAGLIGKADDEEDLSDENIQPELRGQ
Description: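 Universal 'all 10-mer' protein binding microarrays (Agilent AMADID 015681) probed with GST-tagged S. cerevisiae TFs (full-length or DBD) made by in vitro transcription/translation (PURExpress), about 100-200 nM. Bound TF was detected with fluorescent anti-GST. Each ungapped 8-mer (which stands for itself and its reverse complement) is scored by the PBM enrichment score (E-score), a modified Wilcoxon-Mann-Whitney statistic from -0.5 to +0.5, computed with the Universal PBM Analysis Suite. Scale: above 0.35 generally sequence-specific binding.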

Row | Sequence | PBM E-score
1 | CTGAGGCC | -0.204
2 | TGCTAGAA | 0.144
3 | GTCTCCTA | -0.133
4 | GATCGGAA | -0.208
5 | ATTAACTG | 0.0612
6 | GATAATGC | 0.146
7 | ACAAAGAA | 0.126
8 | GAATAAGC | -0.16
9 | AATCAGCT | 0.0593
10 | CGTGACGC | 0.152
11 | CAAACCCC | -0.197
12 | AACAGCGT | -0.0133
13 | TCACTCGA | 0.215
14 | CGAGGCAA | -0.0834
15 | CGAATAAA | 0.106
16 | AGCCTTGA | -0.179
17 | ATCGGTAA | 0.0617
18 | AGGCACAG | -0.192
19 | CAGACACA | -0.0358
20 | AGTTGCTA | -0.0289
21 | CACGGGCG | 0.0264
22 | CTAGGGTC | -0.187

Row | Sequence | PBM E-score
23 | ACAGACAA | 0.193
24 | CCTACTTA | -0.0458
25 | GCTGGCCA | -0.118
26 | GAGCTCAC | -0.152
27 | CAATGTGA | 0.143
28 | ATCTACAG | 0.0367
29 | AGACGGGC | 0.0196
30 | AAGTCTCT | -0.189
31 | TATGCGGA | 0.0153
32 | ACGGATTC | -0.0334
33 | AGCTCGGA | -0.0875
34 | CAGGGACA | 0.0375
35 | GTATTTCA | 0.104
36 | CGCACGCA | -0.177
37 | CACCCCAC | -0.033
38 | TAGGAAGA | -0.187
39 | CGTTGTTA | 0.208
40 | GAGGCGCC | 0.107
41 | CAACTACG | -0.0494
42 | CGAGTACG | -0.0179
43 | AGTGTTGG | -0.0795
44 | CGCTGGGA | -0.195

A different layout for part of the listing above.
Row	Sequence	PBM E-score
25	GCTGGCCA	-0.118
26	GAGCTCAC	-0.152
27	CAATGTGA	0.143
28	ATCTACAG	0.0367

Next part:

Row | Sequence | PBM E-score
45 | AAATATCG | 0.271
46 | ACCATCCT | -0.0137
47 | TCTGTAAA | -0.0311
48 | ACCAAGGT | -0.0774
49 | GGATACGA | 0.28
50 | ATAAGCCC | -0.247
51 | ATATACGG | 0.339
52 | CCCCAAAA | -0.0266
53 | CATCTAGG | -0.0153
54 | CCTAATAA | 0.00019
55 | CTTCGTAA | 0.161
56 | ATGATAAA | 0.406
57 | ACTCTTTC | -0.0974
58 | CCTTCTGA | -0.194
59 | ATCTAGAA | -0.00499
60 | AAAACCCA | 0.131
61 | GCTCGCAA | 0.11
62 | ACTGGGTG | -0.191
63 | CCTCAGGA | -0.029
64 | ACTCGATG | 0.131
65 | CAGGCCTG | -0.184
66 | CGCAGGGA | -0.223

Row | Sequence | PBM E-score
67 | AGTGTAGA | -0.0996
68 | CGCAAGCG | -0.158
69 | GGTCGGAC | -0.0599
70 | TAGATCTA | 0.0736
71 | ATATCAAA | 0.0352
72 | AGCCGTTC | -0.0626
73 | TACCCCTA | -0.0769
74 | AAGTCGTC | 0.112
75 | CAACACAC | 0.0624
76 | CTGCATTC | -0.0482
77 | AAAAAGGG | -0.0754
78 | AGGGAAAA | 0.01
79 | AGAGGGTC | -0.274
80 | AACTGGGA | -0.0619
81 | GCTACCCA | -0.122
82 | GACAGAGC | -0.0294
83 | ATACAAAG | 0.133
84 | CACCTGTA | -0.172
85 | GGAGGCAC | -0.183
86 | ACTTACCG | -0.0584

From the supplement of paper PMC3334620
